The source of these data is PMC11467792.

Chains of the proteins cited; added tags and fusions are not shown.
UniProt O15169: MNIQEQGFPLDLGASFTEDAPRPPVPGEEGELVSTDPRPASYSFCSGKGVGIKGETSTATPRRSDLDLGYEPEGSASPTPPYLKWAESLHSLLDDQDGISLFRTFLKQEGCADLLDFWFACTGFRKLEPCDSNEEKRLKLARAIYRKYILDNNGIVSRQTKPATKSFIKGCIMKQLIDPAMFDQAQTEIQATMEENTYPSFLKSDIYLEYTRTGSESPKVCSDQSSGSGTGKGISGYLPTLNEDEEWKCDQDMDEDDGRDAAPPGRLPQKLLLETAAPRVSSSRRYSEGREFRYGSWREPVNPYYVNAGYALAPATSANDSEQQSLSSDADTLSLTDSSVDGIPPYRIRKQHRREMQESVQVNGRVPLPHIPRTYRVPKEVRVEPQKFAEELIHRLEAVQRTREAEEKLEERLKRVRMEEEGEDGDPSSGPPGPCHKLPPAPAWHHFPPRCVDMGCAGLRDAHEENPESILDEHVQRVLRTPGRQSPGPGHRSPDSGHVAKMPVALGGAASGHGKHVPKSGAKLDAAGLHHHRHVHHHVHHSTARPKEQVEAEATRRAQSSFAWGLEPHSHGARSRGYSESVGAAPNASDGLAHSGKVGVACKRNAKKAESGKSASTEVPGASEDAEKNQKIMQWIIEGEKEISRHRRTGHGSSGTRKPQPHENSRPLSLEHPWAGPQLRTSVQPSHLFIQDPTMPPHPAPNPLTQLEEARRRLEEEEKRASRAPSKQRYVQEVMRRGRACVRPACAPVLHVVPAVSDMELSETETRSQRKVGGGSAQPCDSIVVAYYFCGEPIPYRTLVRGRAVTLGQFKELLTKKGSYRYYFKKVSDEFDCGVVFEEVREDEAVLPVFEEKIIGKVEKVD
UniProt P49674: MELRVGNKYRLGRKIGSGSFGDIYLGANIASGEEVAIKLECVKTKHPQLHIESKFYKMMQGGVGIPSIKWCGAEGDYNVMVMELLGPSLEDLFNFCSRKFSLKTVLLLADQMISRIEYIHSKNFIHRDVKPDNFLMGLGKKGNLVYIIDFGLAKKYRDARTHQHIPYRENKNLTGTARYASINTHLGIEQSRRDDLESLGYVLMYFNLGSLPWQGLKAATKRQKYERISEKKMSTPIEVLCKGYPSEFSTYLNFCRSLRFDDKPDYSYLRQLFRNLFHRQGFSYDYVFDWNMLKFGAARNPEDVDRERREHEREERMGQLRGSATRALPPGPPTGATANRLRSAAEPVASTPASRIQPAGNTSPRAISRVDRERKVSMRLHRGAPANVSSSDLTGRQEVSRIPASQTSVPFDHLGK

These are yes or no findings as the source states them, for the method shown. Binding seen in cells or lysates may run through a third protein. Some results given as binding are weak or reduced against the parent protein; the word gives no strength. For some of these results: Where a sequence is shown, tags or fusion partners need not be part of it.

For test [1], the target named is AXIN1 (axis inhibitor 1), endogenous (human (endogenous in HEK293T)) (UniProt O15169). The test is described as follows: co-IP; endogenous proteins, HEK293T lysate (RIPA buffer); IP with anti-AXIN1 antibody or control IgG, overnight at 4 °C.
Test [2] addresses FLAG-tagged AXIN1 (axis inhibitor 1) (UniProt O15169). The test is described as follows: co-IP; HEK293T cells transfected with HA-SIAH1 and FLAG-AXIN1, with or without GFP-CK1ε; also in CSNK1E-deficient HEK293T cells, after SR3029 (100 nM, 24 h), and with λ-phosphatase; RIPA lysate, overnight at 4 °C.
The target of test [3] is GFP-tagged CK1ε (casein kinase 1ε) (UniProt P49674). Briefly: co-IP; HEK293T cells co-transfected with GFP-CK1ε and HA-SIAH1; RIPA lysate, antibody-conjugated beads overnight at 4 °C; IP with FLAG-tagged beads (Fig. 5A (so in the source)) and with GFP-tagged beads (Fig. 5B).

On to “CK1ε (casein kinase 1ε), endogenous (from UniProt P49674 1-416) (enzyme)”, for which the binding entry in test [1] was “binds”.

B1: HA-tagged SIAH1 (E3 ubiquitin ligase seven in absentia homolog 1) (enzyme, UniProt Q8IUQ4 1-282)
chain: MSRQTATALPTGTSKCPPSQRVPALTGTTASNNDLASLFECPVCFDYVLPPILQCQSGHLVCSNCRPKLTCCPTCRGPLGSIRNLAMEKVANSVLFPCKYASSGCEITLPHTEKADHEELCEFRPYSCPCPGASCKWQGSLDAVMPHLMHQHKSITTLQGEDIVFLATDINLPGAVDWVMMQSCFGFHFMLVLEKQEKYDGHQQFFAIVQLIGTRKQAENFAYRLELNGHRRRLTWEATPRSIHEGIATAIMNSDCLVFDTSIAQLFAENGNLGINVTISMC
Take B1: the binding result in test [2] and in test [3] was “binds” throughout.

B2: SIAH1 (E3 ubiquitin ligase seven in absentia homolog 1), endogenous (enzyme, UniProt Q8IUQ4 1-282)
chain: MSRQTATALPTGTSKCPPSQRVPALTGTTASNNDLASLFECPVCFDYVLPPILQCQSGHLVCSNCRPKLTCCPTCRGPLGSIRNLAMEKVANSVLFPCKYASSGCEITLPHTEKADHEELCEFRPYSCPCPGASCKWQGSLDAVMPHLMHQHKSITTLQGEDIVFLATDINLPGAVDWVMMQSCFGFHFMLVLEKQEKYDGHQQFFAIVQLIGTRKQAENFAYRLELNGHRRRLTWEATPRSIHEGIATAIMNSDCLVFDTSIAQLFAENGNLGINVTISMC
For the molecule B2, in test [1], the binding result is “binds”.
